Values from PubChem BioAssay AID1224830 (NIAID, 2016).

Assay: 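Regulators of TLR4 signalling towards TNF-alpha in macrophage-like cells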 (primary screen)
System: human THP-1 monocytic leukaemia cells, TNF dual-luciferase reporter clone, PMA-differentiated to macrophage-like cells
Reagent: siRNA pool against human genes, 50 nM
Timing: LPS for 4 h, given about 3 days after siRNA transfection
Challenge: bacterial LPS (TLR4 ligand), 10 ng/ml
Detection: 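TNF firefly reporter luminescence divided by renilla, normalised to the plate median, then turned into a robust z-score for each replicate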
Reading the numbers: TNF reporter robust z-score: higher = stronger TNF reporter response to LPS
Rule for the call: 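Each well counts as active if its z-score is over 2.8 or under -1.5; controls are left without a call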
The deposit covers about 18,000 reagents; below is an unselected part. Of all reagents, about 2,900 (16%) are marked active. 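Calls are made per well; low scores hint the gene aids the LPS response, high scores that it dampens it.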 Entries without a mark were called inactive. Repeated entries: four replicate wells of each siRNA pool.

PFKM (phosphofructokinase, muscle)
- TNF reporter robust z-score: 0.13

PFKM (phosphofructokinase, muscle)
- TNF reporter robust z-score: 0.83

PFKM (phosphofructokinase, muscle)
- TNF reporter robust z-score: 0.02

PFKM (phosphofructokinase, muscle)
- TNF reporter robust z-score: 0.63

TYMP (thymidine phosphorylase)
- TNF reporter robust z-score: -0.54

TYMP (thymidine phosphorylase)
- TNF reporter robust z-score: -0.63

TYMP (thymidine phosphorylase)
- TNF reporter robust z-score: -0.9

TYMP (thymidine phosphorylase)
- TNF reporter robust z-score: -0.31

CBX5 (chromobox 5)
- TNF reporter robust z-score: -0.22

CBX5 (chromobox 5)
- TNF reporter robust z-score: 0.57

CBX5 (chromobox 5)
- TNF reporter robust z-score: 0.18

CBX5 (chromobox 5)
- TNF reporter robust z-score: 0.6

Reformatted: 4 of the entries above.
| gene symbol | TNF reporter robust z-score |
| --- | --- |
| TYMP (thymidine phosphorylase) | -0.54 |
| TYMP (thymidine phosphorylase) | -0.63 |
| TYMP (thymidine phosphorylase) | -0.9 |
| TYMP (thymidine phosphorylase) | -0.31 |

Next records follow:
LIPA (lipase A, lysosomal acid type)
- TNF reporter robust z-score: 1.78

LIPA (lipase A, lysosomal acid type)
- TNF reporter robust z-score: -0.65

LIPA (lipase A, lysosomal acid type)
- TNF reporter robust z-score: -0.86

LIPA (lipase A, lysosomal acid type)
- TNF reporter robust z-score: -0.01

RPA4 (replication protein A4)
- TNF reporter robust z-score: 1.68

RPA4 (replication protein A4)
- TNF reporter robust z-score: 1.12

RPA4 (replication protein A4)
- TNF reporter robust z-score: -0.18

RPA4 (replication protein A4)
- TNF reporter robust z-score: 0.31

HOXC13 (homeobox C13)
- TNF reporter robust z-score: -0.88

HOXC13 (homeobox C13)
- TNF reporter robust z-score: -0.89

HOXC13 (homeobox C13)
- TNF reporter robust z-score: -0.84

HOXC13 (homeobox C13)
- TNF reporter robust z-score: -0.93

SLC39A10
- TNF reporter robust z-score: 0.01

SLC39A10
- TNF reporter robust z-score: -0.47

SLC39A10
- TNF reporter robust z-score: -0.91

SLC39A10
- TNF reporter robust z-score: -1.5

KRTAP19-6 (keratin associated protein 19-6)
- TNF reporter robust z-score: -0.48

KRTAP19-6 (keratin associated protein 19-6)
- TNF reporter robust z-score: -0.23

KRTAP19-6 (keratin associated protein 19-6)
- TNF reporter robust z-score: -0.5

KRTAP19-6 (keratin associated protein 19-6)
- TNF reporter robust z-score: -0.37
